Measured values published in PubChem BioAssay AID214 (DTP/NCI, 2004).
The list is a part of this screen's results and no random one: it is rich in T/C values a quarter to a half above the control, in often repeated tests (any T/C) and in doses without a T/C. Further doses and runs are listed elsewhere. T/C is the treated group as % of the vehicle group. Schedule codes are those of the source, read here as Q, the interval in days (D) or hours (H), X, the number of doses. Some T/C values carry the count of animals alive at the toxicity check (mostly the fifth day); where none is given, no animal had died by that day. Some entries were tested several times; the values are given in rising order. Some entries give survivors of the animals treated and no T/C: the source holds a T/C of zero for them, seemingly a mark for toxic or unscored doses. Counts of survivors are from the toxicity check (mostly the fifth day) where no day follows; animals may have died later.

Test system: B6C3F1 mice, colon carcinoma 38 s.c., T/C
Test: NCI In Vivo Anticancer Drug Screen. Data for tumor model Colon Carcinoma 38 (subcutaneous) in B6C3F1 mice
Conditions: T/C endpoint: median tumor weight (est.), higher T/C = larger tumour; for T/C: evaluated on day 20
Description: The antitumor activity of compounds was measured in mice bearing transplantable tumors. Survival or tumor size were measured and the results are expressed as the measurement made in the treated group (T) divided by the measurement made in the vehicle treated control group (C). The tumor model used in this assay is Colon Carcinoma 38 (subcutaneous) in B6C3F1 mice

[1] = dose: 200.0 mg/kg/injection, schedule: Q07DX002 (ip), vehicle: saline with Tween-80
[2] = dose: 400.0 mg/kg/injection, schedule: Q07DX002 (ip), vehicle: saline with Tween-80
[3] = dose: 100.0 mg/kg/injection, schedule: Q07DX002 (ip), vehicle: saline with Tween-80
[4] = dose: 400.0 mg/kg/injection, schedule: Q07DX002 (ip), vehicle: saline
[5] = dose: 200.0 mg/kg/injection, schedule: Q07DX002 (ip), vehicle: Klucel (hydroxypropylcellulose) (HPC)
[6] = dose: 400.0 mg/kg/injection, schedule: Q07DX002 (ip), vehicle: Klucel (hydroxypropylcellulose) (HPC)
[7] = dose: 10.0 mg/kg/injection, schedule: Q07DX002 (ip), vehicle: saline
[8] = dose: 20.0 mg/kg/injection, schedule: Q07DX002 (ip), vehicle: saline
[9] = dose: 800.0 mg/kg/injection, schedule: Q07DX002 (ip), vehicle: Klucel (hydroxypropylcellulose) (HPC)
[10] = dose: 100.0 mg/kg/injection, schedule: Q07DX002 (ip), vehicle: Klucel (hydroxypropylcellulose) (HPC)

SMILES: CCC(NC(N)=O)C(CC)NC(N)=O (configuration not stated)
- survivor count [1]: 1 of 10 on day 20
- survivor count [2]: 0 of 10 on day 20

SMILES: Cc1c(N)nc(C(CC(N)=O)NCC(N)C(N)=O)nc1C(=O)NC(C(=O)NC(C)C(O)CC(=O)NC(C(=O)NC(OC1OC(C)C(N)C(O)C1O)C(O)c1nc(-c2nc(C(=O)NCCCC(N)CC(=O)NCCCNCCCCN)cs2)cs1)C(C)O)C(OC1OC(CO)C(O)C(O)C1OC1OC(CO)C(O)C(OC(N)=O)C1O)c1cnc[nH]1 (configuration not stated)
- survivor count (dose: 64.0 mg/kg/injection, schedule: Q07DX002 (ip), vehicle: saline): 0 of 10 on day 20

SMILES: O=[N+]([O-])c1ccc(N(CCO)CCO)c2c1no[n+]2[O-]
- survivor count [3]: 5 of 10 on day 20
- survivor count [1]: 1 of 10 on day 20
- survivor count [2]: 0 of 10 on day 20

SMILES: O=C(COc1cccc2c(=O)cc(-c3ccccc3)oc12)OCCN1CCOCC1
- T/C [4]: 125 % of control [9 of 10 alive on day 20]

SMILES: O=C(C/C(=N\C(=S)Nc1cc(C(F)(F)F)ccc1Cl)NO)N1CCCC1
- survivor count (dose: 800.0 mg/kg/injection, schedule: Q07DX002 (ip), vehicle: saline with Tween-80): 0 of 10 on day 20

SMILES: C=C(Cl)C(=NC(C)(C)C)Nc1ccccc1C
- survivor count [5]: 1 of 10 on day 20
- survivor count [6]: 2 of 10 on day 20

SMILES: COC(=O)NC1C(C)OC(OC2C/C=C(/C)C3C=CC4C(OC5CC(OC6CCC(OC7CC(O)C(OC8CCC(O)C(C)O8)C(C)O7)C(C)O6)C(OC(C)=O)C(C)O5)C(C)CC(C)C4C3(C)/C(O)=C3/C(=O)OC4(CC(C=O)=CC(O)C4/C=C\2C)C3=O)CC1(C)[N+](=O)[O-] (configuration not stated)
- survivor count (dose: 40.0 mg/kg/injection, schedule: Q07DX002 (ip), vehicle: water): 1 of 10 on day 20

SMILES: COc1ccc(S(=O)(=O)N=N/C=C2\C=CC=CN2O)cc1OC
- survivor count [2]: 4 of 10 on day 20
- survivor count (dose: 600.0 mg/kg/injection, schedule: Q07DX002 (ip), vehicle: saline with Tween-80): 1 of 10 on day 20

SMILES: Oc1ccc(CCl)c2cccnc12
- survivor count [4]: 0 of 10 on day 20

SMILES: N[C@@H](Cc1ccc(N(CCCl)CCCl)cc1)C(=O)O
- T/C (dose: 2.5 mg/kg/injection, schedule: Q07DX002 (ip), vehicle: saline): 31, 46, 53, 80, 83, 85, 109 % of control
- T/C (dose: 5.0 mg/kg/injection, schedule: Q07DX002 (ip), vehicle: saline): 26, 27 [9 of 10 alive on day 20], 32, 46, 63, 108 % of control
- T/C [7]: 1, 7 [7 of 10 alive on day 20], 18, 49 [9 of 10 alive on day 20], 54 % of control
- survivor count [7]: 3 of 10 on day 20
- survivor count (dose: 10.0 mg/kg/injection, schedule: Q07DX002 (ip), vehicle: suspension in saline): 0 of 10 on day 20
- T/C [8]: 1 [8 of 10 alive on day 20], 10, 16 % of control [7 of 10 alive on day 20]
- survivor count [8]: 0 of 10 on day 20 and 2 of 10 on day 20
- survivor count (dose: 20.0 mg/kg/injection, schedule: Q07DX002 (ip), vehicle: suspension in saline): 0 of 10 on day 20 and 1 of 10 on day 20
- survivor count (dose: 40.0 mg/kg/injection, schedule: Q07DX002 (ip), vehicle: saline): 0 of 10 on day 20 and 1 of 10 on day 20
- survivor count (dose: 40.0 mg/kg/injection, schedule: Q07DX002 (ip), vehicle: suspension in saline): 0 of 10 on day 20

SMILES: O=c1[nH]cnc2[nH]ncc12
- survivor count (dose: 200.0 mg/kg/injection, schedule: Q07DX002 (ip), vehicle: suspension in saline): 4 of 10 on day 20
- survivor count (dose: 400.0 mg/kg/injection, schedule: Q07DX002 (ip), vehicle: suspension in saline): 3 of 10 on day 20
- survivor count (dose: 800.0 mg/kg/injection, schedule: Q07DX002 (ip), vehicle: suspension in saline): 4 of 10 on day 20

SMILES: C=C(C(=O)O)C(N)C(=O)O (configuration not stated)
- survivor count (dose: 600.0 mg/kg/injection, schedule: Q07DX002 (ip), vehicle: saline): 6 of 10 on day 20
- survivor count (dose: 1200.0 mg/kg/injection, schedule: Q07DX002 (ip), vehicle: saline): 0 of 10 on day 20

SMILES: Cc1ccoc1
- survivor count (dose: 266.66 mg/kg/injection, schedule: Q03HX006 (ip), vehicle: saline with Tween-80): 1 of 10 on day 20

SMILES: COc1nc(C(Cl)(Cl)Cl)c(Cl)c(OC)c1Cl
- survivor count [9]: 3 of 10 on day 20

SMILES: O=C(CCCN1CCC(C(O)c2ccc(F)cc2)CC1)c1ccc(F)cc1 (configuration not stated)
- T/C (dose: 6.25 mg/kg/injection, schedule: Q07DX002 (ip), vehicle: saline with Tween-80): 126 % of control
- survivor count (dose: 25.0 mg/kg/injection, schedule: Q07DX002 (ip), vehicle: saline with Tween-80): 5 of 10 on day 20
- survivor count (dose: 50.0 mg/kg/injection, schedule: Q07DX002 (ip), vehicle: saline with Tween-80): 0 of 10 on day 20
- survivor count [3]: 0 of 10 on day 20
- survivor count [1]: 0 of 10 on day 20
- survivor count [2]: 0 of 10 on day 20

SMILES: Cc1ccc(NCCN(C)C)c2c(=O)c3cc(O)ccc3sc12
- T/C [10]: 140 % of control
- survivor count [6]: 2 of 10 on day 20

SMILES: Cc1cc(NCCCN(C)C)c2ccc3c(ccc4c(NCCCN(C)C)cc(C)nc43)c2n1
- survivor count (dose: 12.5 mg/kg/injection, schedule: Q07DX002 (ip), vehicle: saline): 2 of 10 on day 20

SMILES: O=C(O)COc1cccc2c(=O)cc(-c3ccccc3)oc12
- T/C [4]: 140 % of control

SMILES: Oc1cccc2ccccc12
- survivor count (dose: 400.0 mg/kg/injection, schedule: Q07DX002 (ip), vehicle: water): 4 of 10 on day 20
- survivor count (dose: 800.0 mg/kg/injection, schedule: Q07DX002 (ip), vehicle: water): 0 of 10 on day 20

SMILES: Oc1c(Cl)cc(Cl)cc1C=NCCSc1ccc(Cl)cc1
- survivor count [9]: 3 of 10 on day 20

SMILES: COC12C(COC(=O)NCCO)C3=C(C(=O)C(C)=C(N)C3=O)N1CC1NC12 (configuration not stated)
- survivor count [10]: 4 of 10 on day 20
- survivor count [5]: 0 of 10 on day 20

SMILES: OCC1OC(n2cnc3c(=S)nc[nH]c32)C(O)C1O (configuration not stated)
- survivor count (dose: 2000.0 mg/kg/injection, schedule: Q07DX002 (ip), vehicle: suspension in saline): 0 of 10 on day 20
